From the supplement of paper PMC4604168 (melanoma cell lines)
This is one part of the list. Single values are uncertain, as repeats are few or missing.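 The apoptosis fraction was the count of cleaved-PARP antibody-stained nuclei relative to all DNA-stained nuclei, imaged in 1,536-well plates. Screening doses were set so most cells survived, and baseline and induced cleaved-PARP levels vary greatly across cell lines.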

Columns and labels:
Test in all cases: cleaved PARP positive nuclei fraction relative to DMSO control; melanoma cells; higher = more apoptosis
Details in all cases: library dose: low library concentration; 72 h
MZ2-MEL = system: MZ2-MEL
MeWo = system: MeWo
RPMI7951 = system: RPMI7951
RVH-421 = system: RVH-421
SkMel28 = system: SkMel28
SkMel2 = system: SkMel2
SkMel30 = system: SkMel30
SkMel5 = system: SkMel5
UACC257 = system: UACC257
UACC62 = system: UACC62
WM115 = system: WM115
WM1716 = system: WM1716
WM1745 = system: WM1745
WM3526 = system: WM3526
WM3619 = system: WM3619
WM451Lu = system: WM451Lu

Structure (SMILES) | cleaved PARP positive nuclei fraction (MZ2-MEL) | cleaved PARP positive nuclei fraction (MeWo) | cleaved PARP positive nuclei fraction (RPMI7951) | cleaved PARP positive nuclei fraction (RVH-421) | cleaved PARP positive nuclei fraction (SkMel28) | cleaved PARP positive nuclei fraction (SkMel2) | cleaved PARP positive nuclei fraction (SkMel30) | cleaved PARP positive nuclei fraction (SkMel5) | cleaved PARP positive nuclei fraction (UACC257) | cleaved PARP positive nuclei fraction (UACC62) | cleaved PARP positive nuclei fraction (WM115) | cleaved PARP positive nuclei fraction (WM1716) | cleaved PARP positive nuclei fraction (WM1745) | cleaved PARP positive nuclei fraction (WM3526) | cleaved PARP positive nuclei fraction (WM3619) | cleaved PARP positive nuclei fraction (WM451Lu)
CS(=O)(=O)CCNCc1ccc(-c2ccc3ncnc(Nc4ccc(OCc5cccc(F)c5)c(Cl)c4)c3c2)o1 [lapatinib] + CCc1ccc(CCOc2ccc(CC3SC(=O)NC3=O)cc2)nc1 [pioglitazone] (first compound 0.8 µM, partner dose 2 µM) | 125% | 55% | 158% | 50.6% | 19.4% | 71.9% | 279% | 77.5% | 107% | 97.7% | 34.2% | 70.3% | 105% | 84.3% | 112% | 161%
O=C(O)c1ccc2c(c1)nc(Nc1cccc(Cl)c1)c1ccncc12 + O=C(Nc1ccccc1)c1cc([N+](=O)[O-])ccc1Cl [GW9662] (first compound 0.4 µM, partner dose 2 µM) | 164% | 102% | 89.9% | 117% | 210% | 84.8% | 99.9% | 140% | 169% | 63.5% | 72.3% | 293% | 99% | 165% | 106% | 81.5%
Cn1c(=O)n(-c2ccc(C(C)(C)C#N)cc2)c2c3cc(-c4cnc5ccccc5c4)ccc3ncc21 + O=C(Nc1cccc(Cl)c1)Nc1ncc(CCNc2ncnc3ccsc23)s1 [SNS314] (first compound 0.004 µM, partner dose 0.0008 µM) | 172% | 62% | 100% | 135% | 94% | 132% | 190% | 140% | 55.9% | 131% | 198% | 98.7% | 105% | 72.5% | 105% | 64.1%
O=C(O)c1ccc2c(c1)nc(Nc1cccc(Cl)c1)c1ccncc12 + Oc1cc(-c2nc(-c3ccccc3)[nH]c2-c2ccncc2)ccc1Cl [L779450] (first compound 0.4 µM, partner dose 0.2 µM) | 145% | 92.5% | 72.3% | 140% | 123% | 231% | 450% | 73.2% | 323% | 345% | 253% | 74.3% | 93.3% | 118% | 101% | 120%
CNC(=O)c1cc(Oc2ccc(NC(=O)Nc3ccc(Cl)c(C(F)(F)F)c3)cc2)ccn1 [sorafenib] + COc1ccc2c(c1)CCC1C2CCC2(C)C(NCCCCCCN3C(=O)C=CC3=O)CCC12 [U73122] (first compound 0.4 µM, partner dose 0.4 µM) | 64.2% | 89.2% | 243% | 101% | 199% | 55% | 66.9% | 92% | 229% | 160% | 276% | 67.6% | 84% | 74.6% | 108% | 34.3%
CCCS(=O)(=O)Nc1ccc(F)c(C(=O)c2c[nH]c3ncc(Cl)cc23)c1F + CCN(CC)CCCCNc1ncc2cc(-c3cc(OC)cc(OC)c3)c(NC(=O)NC(C)(C)C)nc2n1 [PD173074] (first compound 0.08 µM, partner dose 0.1 µM) | 61.6% | 67.4% | 56% | 17.1% | 101% | 64.5% | 257% | 125% | 170% | 280% | 117% | 165% | 89.6% | 89.9% | 80.8% | 39.1%
CNC(=O)c1cc(Oc2ccc(NC(=O)Nc3ccc(Cl)c(C(F)(F)F)c3)cc2)ccn1 [sorafenib] + COc1cc(Nc2ncc(F)c(Nc3ccc4c(n3)NC(=O)C(C)(C)O4)n2)cc(OC)c1OC [Tamatinib] (first compound 0.4 µM, partner dose 0.4 µM) | 105% | 49.2% | 181% | 33.1% | 93.8% | 106% | 74.9% | 78.7% | 47.5% | 176% | 58.9% | 176% | 120% | 50.1% | 99.9% | 51%
Cc1cc(Nc2cc(N3CCN(C)CC3)nc(/C=C/c3ccccc3)n2)n[nH]1 + O=C1NC(=O)/C(=C/c2ccc(-c3ccc(F)cc3O)o2)S1 [AS252424] (first compound 0.04 µM, partner dose 1 µM) | 77.8% | 91.8% | 43.5% | 33.7% | 166% | 86.1% | 44.4% | 72.1% | 355% | 126% | 133% | 126% | 91.9% | 156% | 78.5% | 130%
Nc1nc(F)nc2c1ncn2[C@@H]1O[C@H](CO)[C@@H](O)[C@@H]1O [fludarabine] + COc1cc2ncnc(Nc3ccc(Oc4ccccc4)cc3)c2cc1OC [SrcI1] (first compound 0.2 µM, partner dose 2 µM) | 73.6% | 681% | 56% | 72.9% | 128% | 1160% | 146% | 106% | 84.7% | 94% | 27.3% | 52.7% | 97.6% | 639% | 89.3% | 153%
C=C(c1ccc(C(=O)O)cc1)c1cc2c(cc1C)C(C)(C)CCC2(C)C [Bexarotene] + NCC(=O)Nc1ccc(-n2nc(C(F)(F)F)cc2-c2ccc3c(ccc4ccccc43)c2)cc1 [OSU03012] (first compound 2 µM, partner dose 1 µM) | 191% | 81.3% | 156% | 32% | 263% | 214% | 145% | 99% | 205% | 182% | 29.5% | 91.7% | 96.1% | 109% | 92.2% | 298%
Cc1cc(Nc2cc(N3CCN(C)CC3)nc(/C=C/c3ccccc3)n2)n[nH]1 + NC(=O)Nc1cc(-c2cccc(F)c2)sc1C(=O)N[C@H]1CCCNC1 [AZD7762] (first compound 0.04 µM, partner dose 0.02 µM) | 144% | 54.5% | 61% | 129% | 53% | 87.5% | 117% | 44% | 53.4% | 164% | 351% | 37.8% | 96.4% | 65.1% | 155% | 61.5%
CCCS(=O)(=O)Nc1ccc(F)c(C(=O)c2c[nH]c3ncc(Cl)cc23)c1F + CO[C@@H]1[C@H](N(C)C(=O)c2ccccc2)C[C@H]2O[C@]1(C)n1c3ccccc3c3c4c(c5c6ccccc6n2c5c31)C(=O)NC4 [Midostaurin] (first compound 0.08 µM, partner dose 0.08 µM) | 116% | 114% | 47.1% | 123% | 75.7% | 60.9% | 55.1% | 92.6% | 68.8% | 113% | 54.2% | 51.8% | 99.9% | 92.5% | 139% | 244%
Nc1ncn([C@H]2C[C@H](O)[C@@H](CO)O2)c(=O)n1 [decitabine] + OCCn1cc(-c2cnc3nnn(Cc4ccc5ncccc5c4)c3n2)cn1 [PF04217903] (first compound 0.1 µM, partner dose 1 µM) | 169% | 60.9% | 147% | 106% | 61.8% | 96.5% | 52.9% | 163% | 54.5% | 63.5% | 208% | 43.8% | 68.1% | 70.4% | 66.6% | 23.1%
C[C@@H](Oc1cc(-c2cnn(C3CCNCC3)c2)cnc1N)c1c(Cl)ccc(F)c1Cl [Crizotinib] + COC(=O)c1sccc1S(=O)(=O)Nc1ccc(Nc2ccccc2)cc1OC [GSK0660] (first compound 0.2 µM, partner dose 1 µM) | 35.1% | 308% | 185% | 24% | 146% | 167% | 100% | 71.2% | 49.8% | 577% | 137% | 262% | 87.8% | 82% | 86.3% | 238%
CCCS(=O)(=O)Nc1ccc(F)c(C(=O)c2c[nH]c3ncc(Cl)cc23)c1F + CC(C)(C)c1cnc(CSc2cnc(NC(=O)C3CCNCC3)s2)o1 [SNS-032] (first compound 0.08 µM, partner dose 0.01 µM) | 154% | 91.5% | 110% | 221% | 271% | 139% | 78.8% | 93% | 46.1% | 356% | 103% | 80.2% | 124% | 79.7% | 94% | 33.6%
Nc1ncn([C@H]2C[C@H](O)[C@@H](CO)O2)c(=O)n1 [decitabine] + C[C@@H]1CCN(C(=O)CC#N)C[C@@H]1N(C)c1ncnc2[nH]ccc12 [CP690550] (first compound 0.1 µM, partner dose 1 µM) | 89.5% | 29.6% | 233% | 105% | 40.5% | 154% | 60.2% | 73.8% | 142% | 192% | 147% | 120% | 107% | 52.3% | 101% | 25.4%

Retrieved one by one from the list above, two records:
Structure (SMILES) | cleaved PARP positive nuclei fraction (MZ2-MEL) | cleaved PARP positive nuclei fraction (MeWo) | cleaved PARP positive nuclei fraction (RPMI7951) | cleaved PARP positive nuclei fraction (RVH-421) | cleaved PARP positive nuclei fraction (SkMel28) | cleaved PARP positive nuclei fraction (SkMel2) | cleaved PARP positive nuclei fraction (SkMel30) | cleaved PARP positive nuclei fraction (SkMel5) | cleaved PARP positive nuclei fraction (UACC257) | cleaved PARP positive nuclei fraction (UACC62) | cleaved PARP positive nuclei fraction (WM115) | cleaved PARP positive nuclei fraction (WM1716) | cleaved PARP positive nuclei fraction (WM1745) | cleaved PARP positive nuclei fraction (WM3526) | cleaved PARP positive nuclei fraction (WM3619) | cleaved PARP positive nuclei fraction (WM451Lu)
Cn1c(=O)n(-c2ccc(C(C)(C)C#N)cc2)c2c3cc(-c4cnc5ccccc5c4)ccc3ncc21 + O=C(Nc1cccc(Cl)c1)Nc1ncc(CCNc2ncnc3ccsc23)s1 [SNS314] (first compound 0.004 µM, partner dose 0.0008 µM) | 172% | 62% | 100% | 135% | 94% | 132% | 190% | 140% | 55.9% | 131% | 198% | 98.7% | 105% | 72.5% | 105% | 64.1%
CS(=O)(=O)CCNCc1ccc(-c2ccc3ncnc(Nc4ccc(OCc5cccc(F)c5)c(Cl)c4)c3c2)o1 [lapatinib] + CCc1ccc(CCOc2ccc(CC3SC(=O)NC3=O)cc2)nc1 [pioglitazone] (first compound 0.8 µM, partner dose 2 µM) | 125% | 55% | 158% | 50.6% | 19.4% | 71.9% | 279% | 77.5% | 107% | 97.7% | 34.2% | 70.3% | 105% | 84.3% | 112% | 161%
